Experimental data as given in the supplement of paper PMC8551327.
Some of the results follow. No stated cut-off is given here; in the data, active = 1.25 or more and inactive = the rest. Repeats are few or missing, and single values can be far off.

System: Kcc2-LUC knock-in mouse primary cortical neurons (Kcc2 promoter reporter)
Assay: Kcc2 promoter-driven luciferase activity relative to vehicle control (fold of vehicle (ratio)); higher = stronger Kcc2 promoter activation (Kcc2 expression enhancer)
Settings: 100 nM; 48 h

| Compound | Kcc2 promoter-driven luciferase activity |
| --- | --- |
| COCC1O[C@H](O[C@@H]2C3=C(C(C)C)CC[C@]3(C)/C=C3\[C@@H](CC[C@]3(O)COC)[C@@H](C)[C@H]2O)C(O)C2OC3O[C@]12O[C@@]3(C)C1CO1 (some centres undefined) [Cotylenin A] | inactive: 1.19 |
| COc1ccc(C[C@H]2NC[C@H](O)[C@H]2OC(C)=O)cc1 [Anisomycin] | active: 1.76 |
| CCN1C[C@]2(COC)[C@H](O)C[C@H](OC)[C@@]34[C@@H]5C[C@@]6(O)[C@H](OC(=O)c7ccccc7)[C@@H]5[C@@](OC(C)=O)([C@@H]([C@H](OC)[C@H]23)[C@@H]14)[C@@H](O)[C@@H]6OC [Aconitine] | inactive: 0.77 |
| C[n+]1ccc(-c2cc[n+](C)cc2)cc1 [Gramoxone] | inactive: 0.26 |
| C=C(C)[C@H]1Cc2c(ccc3c2O[C@@H]2COc4cc(OC)c(OC)cc4[C@@H]2C3=O)O1 [Rotenone] | inactive: 0.22 |
| CC(C)(O)[C@@H]1[C@H]2OC(=O)[C@@H]1[C@]1(O)C[C@H]3O[C@]34C(=O)O[C@H]2[C@]14C [Picrotin] | inactive: 0.55 |
| Cc1cc(N(CCCl)CCCl)ccc1/C=N/NC(=O)Cc1cc(=O)oc2cc(O)ccc12 | inactive: 0.99 |
| c1csc(C[N+]23CN4CN(CN(C4)C2)C3)c1 [1-(2-Thenyl)hexamethylenetetrammonium chloride] | active: 1.34 |
| CC[C@](C)(O)C(=O)O[C@H]1C(=O)O[C@@H]2C[C@H]3C(C)=C[C@H](O)[C@@H](O)[C@]3(C)[C@H]3[C@]4(O)OC[C@]32[C@@H]1[C@@H](C)[C@H]4O [GLAUCARUBIN; Simarubaceae] | inactive: 0.845 |
| COc1cc([C@@H]2c3cc4c(c(O)c3C[C@H]3COC(=O)[C@@H]32)OCO4)cc(OC)c1O [Alpha-Peltatin] | inactive: 0.86 |
| C1COCCN1.S=C(S)N1CCOCC1 [Morpholine-N-dithiocarbamate] | inactive: 1.17 |
| Cn1c(=O)[nH]c2nncnc2c1=O [Reumycin] | inactive: 0.82 |
| CC1=C2C(=CC(C)(C)[C@@H]2O)C(=O)[C@](C)(O)C12CC2 [Illudin M] | inactive: 0.92 |
| COc1ccn(C)c(=O)c1C#N [Ricinine] | inactive: 0.56 |
| O=C1N[C@@H]2C(=C[C@H](O)[C@@H](O)[C@H]2O)c2cc3c(c(O)c21)OCO3 [Narciclasine] | inactive: 0.67 |
| CCC[CH2][Sn]([CH2]CCC)([CH2]CCC)[O]c1cc(Cl)c(Cl)cc1Cl [Tributyl(2,5-trichlorophenoxy)tin] | inactive: 0.83 |
| C=Cc1cc(OC)c2c(c1)c(=O)oc1c2cc(OC)c2c(O)ccc(C3OC(C)C(O)C(C)(O)C3O)c21 (centres undefined) [Chrysomycin A] | inactive: 0.73 |
| CN1CCc2cc3c(cc2[C@H]1[C@@H]1OC(=O)c2c1ccc1c2OCO1)OCO3 [Bicuculline] | inactive: 1.12 |
| N#C[C@H](O[C@@H]1O[C@H](CO[C@@H]2O[C@H](CO)[C@@H](O)[C@H](O)[C@H]2O)[C@@H](O)[C@H](O)[C@H]1O)c1ccccc1 [Amygdalin] | inactive: 1.23 |
| C/C(=N\N=C(/[Se])N1CC2CCC(CC2)C1)c1ccccn1 | inactive: 1.2 |
| CC(O)CCC(=O)c1ccoc1 (centres undefined) [4-Ipomeanol] | active: 2.37 |
| C[C@@]12C(=O)OC(=O)[C@]1(C)[C@H]1CC[C@@H]2O1 [Cantharidin] | inactive: 1.24 |
| COc1ccc(-c2cc(=O)c3c(OC)c(OC)c(OC)cc3o2)cc1 [4',5,6,7-Tetramethoxyflavone] | inactive: 0.9 |
| CN(C)C(=S)SSC(=S)N(C)C [Thiram] | inactive: 1 |
| C=C[C@H]1CN2CC[C@H]1C[C@@H]2[C@@H](O)c1ccnc2ccccc12 [Cinchonine] | active: 1.34 |
| C=C1C(=O)O[C@@H]2[C@H]1CC[C@H](C)[C@]1(O)C=CC(=O)[C@@]21C [Parthenin] | inactive: 1.07 |
| CC12CCC3C(CCC4CC(OC(=O)Cc5ccc(N(CCCl)CCCl)cc5)CCC43C)C1CCC(=O)N2 (centres undefined) | inactive: 1 |
| COC1CC(OC2CCC3(C=O)C4CCC5(C)C(C6=CC(=O)OC6)CCC5(O)C4CCC3(O)C2)OC(C)C1OC1OC(CO)C(O)C(O)C1O (centres undefined) [Strophanthin K] | inactive: 1.18 |
| N.N.[Cl][Pt][Cl] [Cisplatin] | inactive: 1.09 |

Shown bar-delimited: part of the list above.
Compound | Kcc2 promoter-driven luciferase activity
COCC1O[C@H](O[C@@H]2C3=C(C(C)C)CC[C@]3(C)/C=C3\[C@@H](CC[C@]3(O)COC)[C@@H](C)[C@H]2O)C(O)C2OC3O[C@]12O[C@@]3(C)C1CO1 (some centres undefined) [Cotylenin A] | inactive: 1.19
CC(C)(O)[C@@H]1[C@H]2OC(=O)[C@@H]1[C@]1(O)C[C@H]3O[C@]34C(=O)O[C@H]2[C@]14C [Picrotin] | inactive: 0.55
Cc1cc(N(CCCl)CCCl)ccc1/C=N/NC(=O)Cc1cc(=O)oc2cc(O)ccc12 | inactive: 0.99
c1csc(C[N+]23CN4CN(CN(C4)C2)C3)c1 [1-(2-Thenyl)hexamethylenetetrammonium chloride] | active: 1.34
CC[C@](C)(O)C(=O)O[C@H]1C(=O)O[C@@H]2C[C@H]3C(C)=C[C@H](O)[C@@H](O)[C@]3(C)[C@H]3[C@]4(O)OC[C@]32[C@@H]1[C@@H](C)[C@H]4O [GLAUCARUBIN; Simarubaceae] | inactive: 0.845
COc1cc([C@@H]2c3cc4c(c(O)c3C[C@H]3COC(=O)[C@@H]32)OCO4)cc(OC)c1O [Alpha-Peltatin] | inactive: 0.86
C[C@@]12C(=O)OC(=O)[C@]1(C)[C@H]1CC[C@@H]2O1 [Cantharidin] | inactive: 1.24
C=C[C@H]1CN2CC[C@H]1C[C@@H]2[C@@H](O)c1ccnc2ccccc12 [Cinchonine] | active: 1.34
